This passage reports survivor count results from PubChem BioAssay AID186 (DTP/NCI, 2004).

The structures appear in SMILES notation. The mice bore no tumour; each value counts animals alive of those treated. Survivors were counted at the toxicity check, usually on the fifth day, unless a day is given; later deaths do not show. Schedule codes are those of the source, read here as Q, the interval in days (D) or hours (H), X, the number of doses. Signs of the kind (2×) give the number of equal values in this list. Some doses were run more than once; the results are listed from low to high.

The experiment deals with B6D2F1 mice, nontumored toxicity test, survival. As to the kind of experiment: NCI In Vivo Anticancer Drug Screen. Data for tumor model Nontumored Animals (Toxicity Test) in B6D2F1 (BDF1) mice.
Setting [1] is: dose: 8.0 mg/kg/injection, schedule: Q04DX003 (ip), vehicle: water.

Regarding `CC[n+]1ccc(Nc2ccc(NC(=O)c3ccc(Nc4cc[n+](CC)c5ccc(N)cc45)cc3)cc2)cc1`, the survivor count is 8 of 8 (dose: 0.12 mg/kg/injection, schedule: Q01DX005 (iv), vehicle: water); 8 of 8 (dose: 0.12 mg/kg/injection, schedule: Q04DX003 (iv), vehicle: water); 8 of 8 (dose: 0.25 mg/kg/injection, schedule: Q01DX005 (iv), vehicle: water); 8 of 8 (dose: 0.25 mg/kg/injection, schedule: Q04DX003 (iv), vehicle: water); 8 of 8 (dose: 0.5 mg/kg/injection, schedule: Q01DX005 (iv), vehicle: water); 8 of 8 (dose: 0.5 mg/kg/injection, schedule: Q03HX024 (ip), vehicle: water). Besides, the survivor count reads like this: (dose: 0.5 mg/kg/injection, schedule: Q03HX024 (oral), vehicle: water) 8 of 8; (dose: 0.5 mg/kg/injection, schedule: Q04DX003 (iv), vehicle: water) 8 of 8; (dose: 1.0 mg/kg/injection, schedule: Q01DX005 (iv), vehicle: water) 8 of 8; (dose: 1.0 mg/kg/injection, schedule: Q01DX009 (oral), vehicle: water) 8 of 8; (dose: 1.0 mg/kg/injection, schedule: Q03HX024 (ip), vehicle: water) 8 of 8; (dose: 1.0 mg/kg/injection, schedule: Q03HX024 (oral), vehicle: water) 8 of 8. In addition, the survivor count is, setting by setting: (dose: 1.0 mg/kg/injection, schedule: Q04DX003 (iv), vehicle: water) 8 of 8; (dose: 2.0 mg/kg/injection, schedule: Q01DX005 (iv), vehicle: water) 0 of 8; (dose: 2.0 mg/kg/injection, schedule: Q01DX009 (ip), vehicle: water) 8 of 8; (dose: 2.0 mg/kg/injection, schedule: Q01DX009 (oral), vehicle: water) 8 of 8; (dose: 2.0 mg/kg/injection, schedule: Q03HX024 (ip), vehicle: water) 8 of 8; (dose: 2.0 mg/kg/injection, schedule: Q03HX024 (oral), vehicle: water) 8 of 8. Besides, the survivor count (dose: 2.0 mg/kg/injection, schedule: Q04DX003 (iv), vehicle: water) is given as 3 of 8; the survivor count (dose: 4.0 mg/kg/injection, schedule: Q01DX009 (ip), vehicle: water) was 8 of 8; the survivor count (dose: 4.0 mg/kg/injection, schedule: Q01DX009 (oral), vehicle: water) was 8 of 8; the survivor count (dose: 4.0 mg/kg/injection, schedule: Q03HX024 (ip), vehicle: water) is recorded as 8 of 8; the survivor count (dose: 4.0 mg/kg/injection, schedule: Q03HX024 (oral), vehicle: water) is on record as 8 of 8; the survivor count (dose: 8.0 mg/kg/injection, schedule: Q01DX009 (oral), vehicle: water) was 8 of 8. The survivor count reads like this: under setting [1], 8 of 8; (dose: 16.0 mg/kg/injection, schedule: Q04DX003 (ip), vehicle: water) 6 of 8.

On to `S=P(N1CC1)(N1CC1)N1CC1`, for which the survivor count was 10 of 10 (dose: 7.5 mg/kg/injection, schedule: Q01DX001 (ip), vehicle: saline); 10 of 10 (dose: 11.0 mg/kg/injection, schedule: Q01DX001 (ip), vehicle: saline); 10 of 10 (dose: 17.0 mg/kg/injection, schedule: Q01DX001 (ip), vehicle: saline).

As for `N[C@@H](Cc1ccc(N(CCCl)CCCl)cc1)C(=O)O`, the survivor count is, setting by setting: (dose: 0.7 mg/kg/injection, schedule: Q01DX009 (ip), vehicle: saline) 5 of 5; (dose: 1.0 mg/kg/injection, schedule: Q04DX003 (ip), vehicle: water) 4 of 4; (dose: 1.2 mg/kg/injection, schedule: Q01DX009 (ip), vehicle: saline) 5 of 5; (dose: 2.0 mg/kg/injection, schedule: Q01DX009 (ip), vehicle: saline) 5 of 5; (dose: 2.0 mg/kg/injection, schedule: Q04DX003 (ip), vehicle: water) 4 of 4; (dose: 3.3 mg/kg/injection, schedule: Q01DX009 (ip), vehicle: saline) 5 of 5. For the same compound, the survivor count runs as follows: (dose: 4.0 mg/kg/injection, schedule: Q04DX003 (ip), vehicle: water) 4 of 4; (dose: 6.6 mg/kg/injection, schedule: Q01DX001 (ip), vehicle: Klucel (hydroxypropylcellulose) (HPC)) 10 of 10; under setting [1], 4 of 4; (dose: 10.0 mg/kg/injection, schedule: Q01DX001 (ip), vehicle: Klucel (hydroxypropylcellulose) (HPC)) 10 of 10; (dose: 10.0 mg/kg/injection, schedule: Q01DX001 (ip), vehicle: saline) 10 of 10 (2×); (dose: 12.5 mg/kg/injection, schedule: Q01DX001 (ip), vehicle: saline) 10 of 10 (2×). The survivor count is 10 of 10 (dose: 15.0 mg/kg/injection, schedule: Q01DX001 (ip), vehicle: Klucel (hydroxypropylcellulose) (HPC)); 10 of 10 (2×) (dose: 15.0 mg/kg/injection, schedule: Q01DX001 (ip), vehicle: saline); 10 of 10 (dose: 18.0 mg/kg/injection, schedule: Q01DX001 (ip), vehicle: Klucel (hydroxypropylcellulose) (HPC)); 10 of 10 (dose: 20.0 mg/kg/injection, schedule: Q01DX001 (ip), vehicle: saline); 6 of 8 and 10 of 10 (dose: 22.5 mg/kg/injection, schedule: Q01DX001 (ip), vehicle: Klucel (hydroxypropylcellulose) (HPC)); 6 of 8 and 9 of 9 (dose: 25.5 mg/kg/injection, schedule: Q01DX001 (ip), vehicle: Klucel (hydroxypropylcellulose) (HPC)).

Consider `N=c1ccn2c(n1)OC1C(O)C(CO)OC12` (stereo unspecified), for which the survivor count is 6 of 6 (dose: 400.0 mg/kg/injection, schedule: Q01DX001 (ip), vehicle: water); 6 of 6 (dose: 800.0 mg/kg/injection, schedule: Q01DX001 (ip), vehicle: water); 6 of 6 (dose: 1600.0 mg/kg/injection, schedule: Q01DX001 (ip), vehicle: water); 2 of 6 (dose: 3200.0 mg/kg/injection, schedule: Q01DX001 (ip), vehicle: water).
